Measured values published in PubChem BioAssay AID2685 (National Center for Advancing Translational Sciences (NCATS), 2010).
The campaign covered roughly 320,000 compounds. About 2,100 (0.66%) were called active. The inconclusive results got no clear call from the source; some entries with a clear call stand among them for comparison. The call rests on the fitted dose curve; in most records, active means well fitted inhibition curve with a large enough effect in the signal ratio, with a control signal flat (not every such curve was filed as active); inconclusive means small, poorly fitted or top-dose-only effect, or effect the other way, or a change in a side signal; inactive means flat fitted curve, though single readings scatter; the % refers to the signal ratio. A potency beside an inconclusive call is a rough fit, not a confirmed value.

Assay: qHTS Assay for Lipid Storage Modulators in Drosophila S3 Cells
Details: BODIPY lipid droplet fluorescence, 18-24 h, cells fed with added oleic acid; lipid storage change, negative = inhibition: at 46.1 µM (top of the series) unless noted
Summary of the method: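 Drosophila S3 cells loaded with oleic acid (400 uM, as added) and compounds at several concentrations; lipid droplets imaged by 488-nm laser-scanning cytometry, 500–530 nm intensity and object ratio to cell channel. Percent activity normalized to 20 uM Triacsin C.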
On the % scale 0 is the no-effect control and ±100 the full control effect; potency means the concentration at half of the fitted maximal effect.

SMILES | lipid storage change, negative = inhibition | Potency
Cc1ccc(-c2nn(CCC(=O)NCC3CCCO3)c(=O)c3ccccc23)cc1 (stereo not drawn) | inconclusive: -25% | –
Cc1ccc(S(=O)(=O)N(C)Cc2ccc(C(=O)NN=C(CC(C)C)CC(C)C)cc2)cc1 | inconclusive: 8.68% | –
CCOc1cccc(-c2nnc(SCC(=O)Nc3cc(C)ccc3OC)n2N)c1 | – | inconclusive: 18.4 µM [falling, single point]
O=C1C2CC=CCC2C(=O)N1c1nc2n(n1)C(c1ccccc1)CC(c1ccccc1)N2 (stereo not drawn) | inconclusive: -16% | –
CCOc1ccccc1NC(=O)COC(=O)/C=C/c1ccc(OC)c(OC)c1 | inconclusive: 19.3% | –
Clc1ccc(CNc2ccc3nnc(-c4ccccc4)n3n2)cc1 | inconclusive: 30.5% | –
Cc1nc(NCCO)c2nnn(Cc3ccccc3F)c2n1 | – | inconclusive: 5.17 µM [rising, partial curve, poor fit]
COc1ccc(C(=O)NCCCc2nc3ccccc3n2Cc2cc(C)ccc2C)cc1OC | inconclusive: -10.3% | –
CN(C)C(CNC(=O)c1cccs1)c1cccnc1 (stereo not drawn) | inconclusive: 38.9% | –
O=C(Nc1cccc(C(=O)O)c1)/C(=C\c1ccc2c(c1)OCO2)NC(=O)c1ccccc1 | inconclusive: -0.618% | –
CCc1ccc2oc(=O)cc(CN3CCCCC3)c2c1 | – | inconclusive: 16.4 µM [falling, single point]
NC1=Nc2cccc3cccc1c23 | inconclusive: -10.1% | –
OC(CN1CCCCC1)CN(c1ccccc1)c1ccccc1 (stereo not drawn) | – | inconclusive: 32.6 µM [falling, single point]
Cc1ccc(-c2cn3c(n2)CCCC3)cc1 | inconclusive: 4.17% | –
Cc1nn(Cc2cccc(C(=O)NC34CC5CC(CC(C5)C3)C4)c2)c(C)c1Br | inconclusive: -15.2% | –
COc1ccc(CCN=C(N)C(C)c2ccccc2)cc1OC (stereo not drawn) | inconclusive: -0.701% | –
O=[N+]([O-])c1ccc(Nc2nc(NC3CCCCC3)nc(N3CCCC3)n2)cc1 | inconclusive: -8.97% | –
COc1cc(-c2cc(C(=O)N3CCN(c4ccccn4)CC3)c3ccccc3n2)cc(OC)c1OC | inconclusive: 65% | –
COCCNS(=O)(=O)c1ccc(C2CNC(=O)C2)cc1 (stereo not drawn) | inconclusive: -3.37% [at 9.22 µM] | –
O=C1c2ccccc2C(=O)N1/N=C/c1ccc(Oc2ccc([N+](=O)[O-])cn2)cc1 | – | inconclusive: 0.13 µM [falling, full curve, poor fit]
CN(C)Cc1c(C(=O)N/N=C/c2ccco2)nnn1-c1nonc1N | – | inconclusive: 2.91 µM [activator, full curve]
COc1ccc(NC(=O)Nc2ccc3nc(C)c(C)nc3c2)cc1 | inconclusive: 5.51% | –
Cc1nnc2n(-c3ccccc3)c(=O)c3c4c(sc3n12)COC(C(C)C)C4 (stereo not drawn) | – | inconclusive: 29.1 µM [activator, single point]
CCCCn1c(/N=C/c2ccc3c(c2)OCO3)nc2ccccc21 | – | inconclusive: 0.0041 µM [falling, full curve, poor fit]
Cc1cccc(OCC(O)CN2CCNCC2)c1 (stereo not drawn) | inconclusive: -4.94% | –
COc1ccc(-c2c(C#Cc3ccsc3)c3cc(Br)ccc3n2C)cc1 | – | inconclusive: 16.4 µM [falling, partial curve]

One compound at a time (already shown):
Cc1ccc(-c2cn3c(n2)CCCC3)cc1 as listed: lipid storage change, negative = inhibition: inconclusive: 4.17%
COc1ccc(C(=O)NCCCc2nc3ccccc3n2Cc2cc(C)ccc2C)cc1OC as listed: lipid storage change, negative = inhibition: inconclusive: -10.3%
COCCNS(=O)(=O)c1ccc(C2CNC(=O)C2)cc1 (stereo not drawn) as listed: lipid storage change, negative = inhibition: inconclusive: -3.37% [at 9.22 µM]

Remaining list, next part

SMILES | lipid storage change, negative = inhibition | Potency
Cc1ccc(S(=O)(=O)Nc2ccc(O)c(S(=O)(=O)c3ccc(C)cc3)c2)cc1 | inconclusive: 11.8% | –
Cc1cc(CNC(=O)CC2C(=O)NCCN2Cc2ccccc2)nn1C (stereo not drawn) | inconclusive: 154% | –
Cc1[nH]c2ccccc2c1/C=N/Nc1nc(N2CCCCC2)nc(N2CCCCC2)n1 | – | inconclusive: 4.61 µM [activator, single point]
COc1cc(C(=O)Nc2ccc(S(=O)(=O)Nc3cc(C)nc(C)n3)cc2)cc(OC)c1OC | – | inconclusive: 29.1 µM [falling, single point]
O=C(NCc1ccccc1)c1nc(-c2cccs2)no1 | inconclusive: 48.8% | –
COc1ccc(C(C(=O)NC2CCCC2)N(Cc2cccnc2)C(=O)c2snc(C(N)=O)c2N)cc1 (stereo not drawn) | inconclusive: -34.1% | –
CN(C)c1ccc(C2N(c3ccc(Cl)cc3)C(=O)C3CCCN32)cc1 (stereo not drawn) | inconclusive: 62.8% | –
CC(C)(C)OC(=O)CNC(=O)c1[nH]cnc1C(=O)N[C@@H](Cc1ccccc1)C(=O)OCc1ccccc1 | inconclusive: -33.8% | –
O=C(CNC(=O)c1ccncc1)N/N=C/c1ccccn1 | inconclusive: -9.31% | –
Cc1ccc(OCC(=O)NCCCNC(=O)c2ccco2)cc1 | inconclusive: 156% | –
CN(C)CCNc1ccc(-c2n[nH]c(=O)c3ccccc23)cc1[N+](=O)[O-] | inconclusive: 13.4% | –
O=C1C2C3C=CC(C3)C2C(=O)N1CC1CCCO1 (stereo not drawn) | – | inconclusive: 0.0073 µM [falling, full curve, poor fit]
CCC1CCCCN1CCCNC(=O)CN1C(=O)CSc2ccc(S(=O)(=O)N3CCC(C)CC3)cc21 (stereo not drawn) | – | inconclusive: 29.1 µM [activator, single point]
Cc1c(Cc2ccc3c(c2)OCO3)sc(NC(=O)C2CC2)c1C(N)=O | – | inconclusive: 0.231 µM [rising, full curve]
CCCC(=O)Nc1ccc(C(=O)NN2C(=O)c3ccccc3C2=O)cc1 | inconclusive: 13.7% | –
Cc1cnc(=O)[nH]c1SCc1ccccc1F | inconclusive: -4.36% | –
CC1(c2ccccc2)NC(=O)N(CCOc2ccccc2)C1=O (stereo not drawn) | inconclusive: 9.03% | –
CC[C@@]12C(=O)N(c3ccccc3)C(=O)N1[C@H](c1ccc(Br)cc1)[C@@H]1C(=O)N(C(C)(C)C)C(=O)[C@@H]12 | inconclusive: 7.6% | –
COC(=O)c1cc(Br)c(=O)n(Cc2ccco2)c1 | inconclusive: 10.6% | –
Cc1ccc(C)c(S(=O)(=O)N2CCN(C(=O)[C@H](C)N3C(=O)C4CC=CCC4C3=O)CC2)c1 (stereo partly drawn) | inconclusive: -7.5% | –
COc1ccc(C(=O)N/C(=C\c2cccc([N+](=O)[O-])c2)C(=O)Nc2cccc(C(=O)O)c2)cc1 | inconclusive: 0.649% | –
CC1(C)CC(=O)C=C(Nc2ccc(Br)cc2F)C1 | inconclusive: 91.3% | –
COc1ccc(C(=O)N(c2ccccc2)C2C=CS(=O)(=O)C2)cc1 (stereo not drawn) | inconclusive: 16.9% | –
COc1cccc(NC(=O)c2ccncc2)c1 | inconclusive: 12.1% | –
NC(N)=N/N=C/c1ccc(OS(=O)(=O)c2ccccc2)cc1 | inconclusive: -37% [at 0.369 µM] | –
CC(=O)c1sc(NC(=O)c2ccc(C)c(C)c2)nc1C | inconclusive: 12.3% | –

Three records picked at random from the list so far:
SMILES | lipid storage change, negative = inhibition | Potency
COc1cccc(NC(=O)c2ccncc2)c1 | inconclusive: 12.1% | –
CC[C@@]12C(=O)N(c3ccccc3)C(=O)N1[C@H](c1ccc(Br)cc1)[C@@H]1C(=O)N(C(C)(C)C)C(=O)[C@@H]12 | inconclusive: 7.6% | –
NC(N)=N/N=C/c1ccc(OS(=O)(=O)c2ccccc2)cc1 | inconclusive: -37% [at 0.369 µM] | –

Continuation.

SMILES | lipid storage change, negative = inhibition | Potency
Cc1ccc(Oc2nc3ccccn3c(=O)c2/C=C(\C#N)C(=O)NC2CCS(=O)(=O)C2)c(C)c1 (stereo not drawn) | inconclusive: -33.3% | –
CNc1nc(-c2c(C)[nH]c3ccc(OC)cc23)cs1 | inconclusive: 19.4% | –
C=CCNC(=S)NNC(=O)c1ccc(OCC)cc1 | inactive | –
O=C(NC(=S)N1CCCCC1c1cccnc1)c1ccc(Br)cc1 (stereo not drawn) | – | inconclusive: 29.1 µM [activator, single point]
COc1ccc(NC(=O)c2ccsc2NC(C)=O)cc1 | inconclusive: -24.1% | –
NC(=O)C1=C[C@@H](c2ccccc2)C[C@@H](OCc2ccc(CO)cc2)O1 | inconclusive: 4.39% | –
COC(=O)c1ccc(C)c(NC(=O)CN(c2ccccc2)S(=O)(=O)N(C)C)c1 | inconclusive: 1.22% | –
Cc1ccc(S(=O)(=O)n2nc(-c3ccco3)nc2SCc2ccccc2)cc1 | – | inconclusive: 0.366 µM [falling, full curve]
O=C(c1ccc(CN2CCc3ccccc3C2)cc1)N1CCN(c2ccccc2)CC1 | inconclusive: 4.4% | –
COc1cc(C(=O)NCc2ccncc2)cc(OC)c1OC | inconclusive: 24.8% | –
COc1ccccc1CNC(=O)c1ccc2ccccc2n1 | inconclusive: 289% | –
COc1cc(C(=O)NC2CCCCC2)ccc1OCc1ccc(Cl)cc1Cl | – | inconclusive: 20.6 µM [activator, partial curve]
Cc1ccc(S(=O)(=O)NC(Cc2ccccc2)C(=O)O)cc1 (stereo not drawn) | inconclusive: -34.9% | –
CCN(CCCNC(=O)C1CCC(=O)N1Cc1ccc(F)cc1)c1cccc(C)c1 (stereo not drawn) | inconclusive: -4.24% | –
O=C1CN(C(=O)c2ccccc2F)C(c2ccccc2)c2cc(F)ccc2N1 (stereo not drawn) | inconclusive: -23.1% | –
Cc1cccc(N2CCN(C(=O)CC(NC(=O)c3ccccc3Cl)c3ccccc3)CC2)c1C (stereo not drawn) | – | active: 10.3 µM
CCS(=O)(=O)N1Cc2ccccc2CC1C(=O)Nc1cccc(OC)c1 (stereo not drawn) | – | inconclusive: 29.1 µM [activator, single point]
CNc1ccc(Br)cc(C(=O)/C=C/c2cc(OC)ccc2OC)c1=O | – | inconclusive: 23.1 µM [falling, single point]
COCCN(Cc1ccccc1)C(=O)Cc1ccc(OC)c(S(=O)(=O)N2CCOCC2)c1 | inconclusive: -100% | –
CCOC(=O)CNC(=O)C12CC3CC(CC(C3)C1)C2 | inconclusive: 19% | –
O=C(Cc1cccc2ccccc12)Nc1ccc(N2CCOCC2)cc1 | inactive | –
Cc1noc(NS(=O)(=O)c2ccc(NC(=O)C(F)(F)F)cc2)c1C | inconclusive: 122% | –
CCN1C=C(Cc2ccc(OC)cc2)C2=C(C1)C(c1ccc(OC)cc1)C(C#N)=C(N)O2 (stereo not drawn) | inconclusive: -57.4% | –
C(C#CCCCCCCCCC[n+]1ccccc1)#CCCCCCCCCC[n+]1ccccc1 | – | active: 13 µM
CC1(C)CC(=O)C2=C(C1)N(c1ccc(F)cc1)C(=O)CC2c1ccsc1 (stereo not drawn) | inconclusive: -31.6% | –
CC(=O)c1ccc(N2CCC(c3cc(-c4ccc(Cl)cc4)n[nH]3)CC2)c([N+](=O)[O-])c1 | inconclusive: -12.9% | –
